Source: PubChem BioAssay AID2685 (National Center for Advancing Translational Sciences (NCATS), 2010)
This is one part of the list. Shown are side measurements of this screen, not its main read-out; they come without a call. Compounds called inactive in the main read-out are mostly missing here. Potencies come from curve fits of mixed quality, noted in brackets.

Assay: qHTS Assay for Lipid Storage Modulators in Drosophila S3 Cells;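 as to cell number change: cells counted by Cell Tracker Red CMTPX staining in the red channel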
Details: BODIPY lipid droplet fluorescence, 18-24 h; for cell number change: measured here: cell count max response, cells fed with added oleic acid
Method in brief: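 Drosophila S3 cells loaded with oleic acid (400 uM, as added) and compounds at several concentrations; lipid droplets imaged by 488-nm laser-scanning cytometry, 500–530 nm intensity and object ratio to cell channel. Percent activity normalized to 20 uM Triacsin C.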

[1] = measured here: lipid fluorescence (Fed channel) AC50, cells fed with added oleic acid
[2] = measured here: cell number channel AC50, cells fed with added oleic acid

With `CCc1nnc(NC(=O)CN2CCN(Cc3ccccc3Cl)CC2)s1` the cell number change was 4.97% and the AC50 [1] was 6.51 µM [rising, single point].

In the case of `CNC(=S)N1CCc2ccccc2C1`, the cell number change is reported as 8.48% and the AC50 [1] is reported as 0.092 µM [rising, full curve].

`CC1NC(=O)N(C)C2NC(=O)N(C)C(c3ccccc3)C12` (stereo not drawn) gave a cell number change of -2.48%.

With `COc1ccc(NC(=O)COC(=O)c2ccc(-n3cnnn3)cc2)cc1Cl` the cell number change was -10.9% and the AC50 [1] was 0.731 µM [falling, single point].

With `Cc1nc2ccc(S(=O)(=O)Nc3cccc(-c4nc5cccnc5s4)c3)cc2s1` the cell number change was -32.1%, the AC50 [2] was 0.326 µM [falling, full curve, poor fit] and the AC50 [1] was 0.82 µM [falling, partial curve, poor fit].

With `Nc1cc(C(=O)O)ccc1Nc1ccc(F)c(F)c1` the cell number change was -177% and the AC50 [2] was 20.6 µM [falling, partial curve].

For `CCCCS(=O)(=O)/C=C\C=C/S(=O)(=O)CCCC`, the cell number change was -55.1% and the AC50 [2] was 32.6 µM [falling, single point].

For `Cc1ccc(-c2nc(C#N)c(NCc3ccco3)o2)cc1`, the cell number change was -23.2% and the AC50 [1] was 1.16 µM [rising, partial curve].

For `O=C(O)/C=C/C(=O)NCC1CCC(CNC(=O)/C=C/C(=O)O)CC1` (stereo not drawn), the cell number change was -24.1% and the AC50 [1] was 2.31 µM [falling, full curve, poor fit].

In the case of `CCCn1nnc(NC(=O)c2ccc(-c3cccc(Cl)c3)o2)n1`, the cell number change is reported as -15.7% and the AC50 [1] is reported as 0.164 µM [falling, full curve, poor fit].

In the case of `Cn1c(=O)c2c(nc(CN3CCN(c4ccccc4)CC3)n2CCN2CCOCC2)n(C)c1=O`, the cell number change is reported as 35.8%, the AC50 [2] is reported as 7.31 µM [rising, partial curve] and the AC50 [1] is reported as 10.3 µM [rising, partial curve].

For `CC(NCC(=O)Nc1ccccc1C(=O)NC1CC1)c1ccccc1Cl` (stereo not drawn), the cell number change was -4.5%, the AC50 [2] was 7.31 µM [falling, single point] and the AC50 [1] was 6.51 µM [falling, single point].

With `COc1cc(C(=S)NC2CCCCC2)ccc1O` the cell number change was 24.9%, the AC50 [2] was 0.164 µM [rising, full curve, poor fit] and the AC50 [1] was 0.164 µM [rising, full curve, poor fit].

`Cc1cccc(Cn2nc(-n3cccc3)c3c(C)cc(C)nc32)c1` gave a cell number change of 14.7%.

In the case of `CN(CC(=O)Nc1ccccc1C(F)(F)F)C(=O)CSCc1ccc(Cl)c(Cl)c1`, the AC50 [1] is reported as 2.91 µM [rising, single point].

In the case of `COc1ccc(CC(=O)OC(C)C(=O)NC2CCCCC2C)cc1` (stereo not drawn), the cell number change is reported as -12%.

In the case of `N#Cc1ccc(C(=O)N2CCN(c3ncccn3)CC2)cc1`, the cell number change is reported as 20.6% and the AC50 [1] is reported as 5.8 µM [rising, partial curve].

For `N#CCCN(C(=O)Nc1ccc(Cl)c(Cl)c1)c1ccccc1`, the cell number change was 30%, the AC50 [2] was 8.2 µM [rising, partial curve] and the AC50 [1] was 10.3 µM [rising, partial curve].

For `COC(=O)[C@@H](c1ccccc1)N(C)S(=O)(=O)c1cccc(S(=O)(=O)N(C)[C@@H](C(=O)OC)c2ccccc2)c1`, the cell number change was 140%, the AC50 [2] was 29.1 µM [rising, single point] and the AC50 [1] was 29.1 µM [rising, partial curve].

With `O=c1cc(-c2ccc(O)c(O)c2)oc2cc(O)cc(O)c12` the AC50 [1] was 1.84 µM [falling, partial curve].

In the case of `N#C/C(=C/c1ccco1)c1nc2ccccc2s1`, the cell number change is reported as 6.5% and the AC50 [1] is reported as 4.11 µM [falling, full curve, poor fit].

With `COC(=O)c1ccccc1NC(=O)CNC(=O)c1ccc(OC)cc1` the cell number change was 86.6% and the AC50 [2] was 14.6 µM [rising, partial curve].

With `Oc1c(C=NCc2ccc(F)cc2)[nH]c2ccc(Br)c(Cl)c12` the cell number change was 39.1%, the AC50 [2] was 20.6 µM [rising, single point] and the AC50 [1] was 29.1 µM [rising, single point].

With `COc1ccc(N=c2oc3cc(O)ccc3cc2C(=O)Nc2ccccn2)cc1OC` the cell number change was -34.4%, the AC50 [2] was 0.58 µM [falling, full curve, poor fit] and the AC50 [1] was 29.1 µM [falling, single point].

In the case of `Cc1nc2cc(CO)ccc2n1C`, the cell number change is reported as -113%, the AC50 [2] is reported as 32.6 µM [falling, partial curve] and the AC50 [1] is reported as 18.4 µM [falling, single point].

For `Cc1ccc(OCCn2ncc3ccccc3c2=O)c(C)c1`, the cell number change was -2.78% and the AC50 [1] was 29.1 µM [rising, single point].

With `COc1ccc(C(=O)NC(=S)Nc2ccc(CN3CCOCC3)cc2)cc1Cl` the cell number change was -6.19% and the AC50 [1] was 6.51 µM [falling, single point].

In the case of `CSc1nnc(-c2ccc([N+](=O)[O-])cc2)o1`, the cell number change is reported as 33.3%, the AC50 [2] is reported as 0.00411 µM [rising, full curve, poor fit] and the AC50 [1] is reported as 6.51 µM [rising, single point].

For `Cc1cccc2cc(C#N)c(NCc3ccccc3)nc12`, the AC50 [2] was 2.06 µM [rising, single point] and the AC50 [1] was 2.06 µM [rising, single point].

In the case of `COC(=O)c1ccc(SC)cn1`, the cell number change is reported as -27.6% and the AC50 [1] is reported as 0.0058 µM [falling, full curve].

For `O=C1CCCN1C(=O)COc1cc(F)ccc1[N+](=O)[O-]`, the cell number change was -3.11% and the AC50 [1] was 4.11 µM [rising, single point].

With `CCOCCCNC(=O)CN1C(=O)COc2ccc(S(=O)(=O)N3CCCC3)cc21` the AC50 [2] was 0.58 µM [rising, partial curve].

For `COc1ccc(Br)c(C(=O)NC2CCCC2)c1`, the cell number change was -15.6% and the AC50 [1] was 9.2 µM [falling, partial curve, poor fit].

In the case of `CCCN(CCC)C(=O)CP(=O)(c1ccccc1)c1ccccc1`, the cell number change is reported as -24.7%, the AC50 [2] is reported as 0.13 µM [falling, full curve, poor fit] and the AC50 [1] is reported as 0.13 µM [falling, full curve, poor fit].

With `CCCn1cc(CN2CCCC(CNC(=O)c3ccc(F)cc3)C2)c(C)n1` (stereo not drawn) the cell number change was -0.409% and the AC50 [1] was 6.51 µM [falling, single point].

In the case of `c1ccc(CC2CCN(C(c3cccs3)c3nnnn3C3CCCC3)CC2)cc1` (stereo not drawn), the AC50 [2] is reported as 0.092 µM [rising, full curve, poor fit].

In the case of `CSc1ccc(S(=O)(=O)Nc2ccc(NC(C)=O)cc2)cc1`, the cell number change is reported as -3.92% and the AC50 [1] is reported as 10.3 µM [rising, single point].

For `Cc1nn(CC(=O)c2ccccc2)c(=O)c2nn(-c3ccccc3F)c(C)c12`, the cell number change was 5.2%.

In the case of `COc1ccc(CCNCC(O)Cn2c3ccccc3c3ccccc32)cc1OC` (stereo not drawn), the cell number change is reported as -31% and the AC50 [1] is reported as 29.1 µM [falling, single point].

For `Cc1ccccc1S(=O)(=O)NC1OC(=O)C(Cl)=C1Cl` (stereo not drawn), the cell number change was -24.2% and the AC50 [1] was 0.116 µM [falling, full curve, poor fit].

In the case of `COc1ccc(-n2nc(C(=O)NCC(=O)NCC3CCCO3)c3ccccc3c2=O)cc1` (stereo not drawn), the AC50 [2] is reported as 0.164 µM [rising, full curve, poor fit].

For `C=CCn1c(N)c(C(=O)OC(C)(C)C)c2nc3ccccc3nc21`, the cell number change was 38.8%, the AC50 [2] was 29.1 µM [rising, single point] and the AC50 [1] was 0.58 µM [rising, full curve, poor fit].

With `COc1cc(NC(=O)c2ccco2)c(OC)cc1NC(=O)CCC(=O)Nc1cc(C)cc(C)c1` the cell number change was 15.5% and the AC50 [1] was 23.1 µM [rising, partial curve].

In the case of `CC12CCC(=O)N1C(C(=O)NCc1ccccc1Cl)CS2` (stereo not drawn), the cell number change is reported as 5.89% and the AC50 [1] is reported as 29.1 µM [rising, single point].

With `CCc1ccc(/C(C)=N/NC(=O)CNC(=O)/C=C/c2ccccc2OC)cc1` the cell number change was -6.72%.

With `COc1ccc(Cl)cc1NC(=O)CN(C)C(=O)Cc1ccsc1` the AC50 [2] was 7.31 µM [rising, single point] and the AC50 [1] was 14.6 µM [falling, partial curve].

In the case of `O=C(Nc1ccc(F)cc1)C(Sc1nnc2ccccn12)c1ccccc1` (stereo not drawn), the AC50 [1] is reported as 16.4 µM [rising, single point].

With `CCn1c2ccccc2c2cc(NC(=O)CSc3nnc(-c4ccc(OC)cc4)n3N)ccc21` the cell number change was -38.1%, the AC50 [2] was 32.6 µM [falling, partial curve, poor fit] and the AC50 [1] was 0.058 µM [falling, full curve, poor fit].

In the case of `O=C(CN1CCN(CC(=O)Nc2ccccc2Cl)CC1)Nc1ccc(F)c(F)c1`, the cell number change is reported as -6.31%.

With `CCCCCn1c(SCC(=O)OC)nc2c1c(=O)[nH]c(=O)n2C` the cell number change was -40.2%, the AC50 [2] was 2.31 µM [falling, partial curve, poor fit] and the AC50 [1] was 0.366 µM [rising, full curve].

In the case of `CC(=O)N1C(C(=O)O)CSC1c1ccc(C)cc1` (stereo not drawn), the cell number change is reported as 13.1%.

In the case of `COC(=O)C1CCCCN1C(=O)c1cc(COc2cccc3cnccc23)on1` (stereo not drawn), the cell number change is reported as -61%, the AC50 [2] is reported as 4.61 µM [falling, partial curve] and the AC50 [1] is reported as 3.66 µM [falling, full curve].

With `COc1ccc(N2CCN(CC(=O)Nc3sccc3C#N)CC2)cc1` the cell number change was 40% and the AC50 [2] was 0.517 µM [rising, full curve, poor fit].

For `CN(C)C(C)(C)C#CCC(c1ccccc1)c1ccccc1`, the cell number change was 12.7% and the AC50 [1] was 0.184 µM [rising, full curve, poor fit].

With `CCN(CC)c1ccc(CNc2ccc3c(c2)ncn3C(C)(C)C)cc1` the cell number change was -31.5% and the AC50 [1] was 32.6 µM [falling, single point].

For `O=C(OCC(=O)N1CCCC1=O)c1cc(Cl)ccc1O`, the cell number change was -26.5% and the AC50 [1] was 0.13 µM [falling, full curve, poor fit].

With `COc1cc(NS(=O)(=O)c2ccc(NC(=O)CN3C(=O)c4ccccc4C3=O)cc2)nc(OC)n1` the cell number change was 31.5% and the AC50 [2] was 8.2 µM [rising, partial curve].

For `Cc1cc(C)c(C)c(S(=O)(=O)Nc2ccc(OCC(=O)O)cc2)c1C`, the cell number change was 9.42% and the AC50 [1] was 0.103 µM [falling, full curve, poor fit].
